Source: PubChem BioAssay AID504834 (National Center for Advancing Translational Sciences (NCATS), 2011)
Values joined by “and” are separate entries in the source; they are usually repeats but may differ in a detail not shown here. Equal values may be shown once. Screen size: about 320,000 compounds; about 22,000 (6.9%) were called active. This list was built around the results that the source calls inconclusive (neither active nor inactive); the mix of calls is not that of the screen. Calls come from the whole dose curve; as a rule, active = well fitted inhibition curve with a large enough effect; inconclusive = small, poorly fitted or top-dose-only effect, or another doubt; inactive = no such curve, though single readings can be large or run the other way. A potency beside an inconclusive call is a rough fit, not a confirmed value.

Test: Primary qHTS for delayed death inhibitors of the malarial parasite plastid, 96 hour incubation
Conditions: P. falciparum luciferase reporter growth; series mostly up to 28.7 µM; activity change, negative = inhibition: at the top concentration
Method in brief: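 Cell-based qHTS: luciferase-tagged P. falciparum in erythrocytes (2% hematocrit, 0.05% parasitemia final) incubated with compounds for 96 hours, 37 C, 5% CO2; luciferase detection reagent then added and luminescence measured.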
% is set by controls: 0 for no effect and ±100 for the full control effect; potency is the fitted concentration of half-maximal effect.

Compound	Potency	activity change, negative = inhibition
CC(C)Cc1nn2c(=O)cc(COc3ccc(NC(=O)c4ccco4)cc3)nc2s1	inconclusive: 18.5 µM [inhibitor, single point]	
O=C(CNC(=O)COc1ccccc1)NCCN1CCOCC1		inactive: 10.3%
O=C(O)c1ccccc1-c1ccccc1C(=O)NCc1ccco1		inactive: 10.6%
CCNS(=O)(=O)c1ccc(CCC(=O)N2CCN(Cc3ccccc3)CC2)cc1	inconclusive: 9.28 µM [inhibitor, single point]	
CCc1ccccc1N(CC(=O)N1CCCC1)S(C)(=O)=O	active: 10.4 µM	
O=C(C[n+]1cc(Br)cc2ccccc21)c1ccc(Br)cc1	inconclusive: 18.5 µM [inhibitor, single point]	
CCOc1cc(Br)c(CN2C(=O)NC3(CCCCCC3)C2=O)cc1OCC	inconclusive: 18.5 µM [inhibitor, single point]	
Cc1c2ccccc2c(C)c2c1ccc1ccccc12	active: 0.657 µM	
COc1ccc(-n2c(SCC(=O)c3ccc[nH]3)nnc2-c2ccccc2)cc1	inconclusive: 0.329 µM [inhibitor, full curve, poor fit]	
CCOc1cc(/C=N/NC(=O)COc2ccc(Cl)cc2)ccc1OS(=O)(=O)c1ccccc1	inconclusive: 2.94 µM [inhibitor, partial curve, poor fit]	
[O-]/[N+](=C/c1ccco1)c1ccccc1	inconclusive: 7.38 µM [inhibitor, partial curve, poor fit]	
Cc1ccc(Cc2nc(-c3cccnc3)no2)cc1		inactive: -24.6%
CCCCC1CCC(C(=O)N(C)CC(=O)Nc2cccc(F)c2)CC1 (stereo not drawn)	inconclusive: 10.4 µM [inhibitor, single point]	
CN(C(=O)c1ccc(NC(=O)Cc2cccc(NC(=O)C3CCN(C(=O)C4CCCCC4)CC3)c2)cc1)C1CCCC1	inconclusive: 11.7 µM [inhibitor, single point]	
CC(=O)OCC(=O)[C@@]1(OC(C)=O)[C@@H](C)C[C@H]2[C@@H]3C[C@H](F)C4=CC(=O)C=C[C@]4(C)[C@@]3(F)[C@@H](O)C[C@@]21C	inconclusive: 19 µM [inhibitor, single point] and inconclusive: 14.7 µM [inhibitor, partial curve, poor fit]	
CCn1c(=N)n(CC(O)COc2cccc(C)c2)c2ccccc21 (stereo not drawn)	inconclusive: 2.94 µM [inhibitor, full curve, poor fit]	
CC1CC(C)(C)NC(=S)N1CCCC(=O)Nc1ccc(F)cc1 (stereo not drawn)	inconclusive: 11.7 µM [inhibitor, single point]	
COc1cc(C2CC(=O)C=C(O)C2)cc(OC)c1OC (stereo not drawn)	inconclusive: 1.04 µM [inhibitor, partial curve, poor fit]	
CC(=O)N1CSCC1C(=O)NNS(=O)(=O)c1cccc(C(F)(F)F)c1 (stereo not drawn)		inactive: 51.4%
COc1ccc(C2CC(c3cccs3)=NN2C(=O)c2ccco2)cc1OC (stereo not drawn)	active: 0.131 µM	
COc1cccc(NC(=O)CN(C)C(=O)/C=C/c2cn(-c3ccccc3)nc2-c2ccc(C)cc2)c1	inconclusive: 13.1 µM [inhibitor, partial curve]	
CS(=O)(=O)N1CCCC(C(=O)Nc2c(F)cccc2F)C1 (stereo not drawn)	inconclusive: 0.0026 µM [inhibitor, full curve, poor fit]	
CCn1nc(C(=O)NCc2nnc3ccccn23)c2ccccc2c1=O	inconclusive: 13.1 µM [inhibitor, single point]	
Nc1ccc2c(c1)COc1ccccc1O2		inactive: 22.1%
O=C(Nc1ccc(C(=O)N2CCOCC2)cc1)c1cnn2c(C(F)F)cc(-c3ccccc3)nc12		inactive: 145%

In another format: 3 of the compounds above
Compound,Potency,"activity change, negative = inhibition"
O=C(O)c1ccccc1-c1ccccc1C(=O)NCc1ccco1,,inactive: 10.6%
CC1CC(C)(C)NC(=S)N1CCCC(=O)Nc1ccc(F)cc1 (stereo not drawn),"inconclusive: 11.7 µM [inhibitor, single point]",
CCn1nc(C(=O)NCc2nnc3ccccn23)c2ccccc2c1=O,"inconclusive: 13.1 µM [inhibitor, single point]",

(listing goes on)

Compound	Potency	activity change, negative = inhibition
O=S(=O)(Nc1ccc2c(c1)OCCO2)c1c(F)cccc1F		inactive: 9.41%
Cc1ccccc1C(=O)Nc1nnc(-c2ccncc2)o1		inactive: -26.8%
O=C1C2CCCCN2C(=O)N1CCCCN1CCN(c2ccccc2Oc2ccccc2)CC1 (stereo not drawn)	inconclusive: 1.65 µM [inhibitor, full curve]	
COc1cccc(NC(=O)C(=S)NC2CCCCC2)c1		inactive: -16.8%
COc1cc(OC)c(OC)cc1CN1CCN(Cc2cccc(F)c2)CC1	inconclusive: 0.586 µM [inhibitor, partial curve]	
COc1ccccc1/C=C/C(=C1/C(=O)N(c2ccccc2)N=C1C)c1ccc(C)cc1	active: 11.7 µM	
O=C1CSC(c2ccccn2)N1c1ccccc1 (stereo not drawn)		inactive: -20%
CCNc1nc(NCC)n2c(SCC(=O)Nc3ccc(Br)cc3F)nnc2n1	inconclusive: 4.15 µM [inhibitor, partial curve]	
Cc1ccc(C)c(NC(=O)CSc2nnc(-c3ccccc3)n2N)c1	inconclusive: 20.8 µM [inhibitor, single point]	
CC(O)C(NS(=O)(=O)c1ccc(Cl)cc1)C(=O)OCC(=O)N1CCN(c2ccccc2)CC1 (stereo not drawn)	inconclusive: 18.5 µM [inhibitor, single point]	
CC1CCc2c(sc3ncn(Cc4ccc(C(=O)O)cc4)c(=O)c23)C1 (stereo not drawn)		inactive: 26.2%
Fc1ccc(CN2CCCCCCC2)cc1F	inconclusive: 0.131 µM [inhibitor, full curve, poor fit]	
O=C1CC(C(=O)Nc2ccccc2)S/C(=N\NC(=O)c2ccccc2Cl)N1 (stereo not drawn)	inconclusive: 16.5 µM [inhibitor, partial curve, poor fit]	
COCCCN1C(=O)c2[nH]nc(-c3ccccc3O)c2C1c1cccc(Cl)c1 (stereo not drawn)	active: 7.38 µM	
Cc1c(C(=O)NC2=NCCS2)oc2ccccc12		inactive: 16.3%
O=C(NCC(=O)N(Cc1ccccc1)C(C(=O)NC1CCCC1)c1ccncc1)c1ccco1 (stereo not drawn)	inconclusive: 18.5 µM [inhibitor, single point]	
O=C(CSc1nccc(-c2cccs2)n1)Nc1cccc(Cl)c1	inconclusive: 11.7 µM [inhibitor, single point]	
O=C(COc1ccc(Cl)cc1)OCC(=O)c1ccc[nH]1		inactive: 18.6%
COc1ccc(CCNCc2cc3ccc(C)cc3[nH]c2=O)cc1OC	active: 13.1 µM	
O=C(COC(=O)c1ccc(CNS(=O)(=O)c2ccc(F)c(Cl)c2)cc1)NC1CCCCCCC1	inconclusive: 18.5 µM [inhibitor, single point]	
O=C(Cc1ccccc1)c1c[nH]c(C(=O)NC2CCCC2)c1		inactive: -23.9%
Cc1ccc(C(=O)OCC(=O)N(CC(C)C)c2c(N)n(Cc3ccccc3)c(=O)[nH]c2=O)cc1[N+](=O)[O-]		inactive: -15.8%
CCCN1CCC(=O)N([C@H](COc2ccccc2)c2ccccc2)CC1	inconclusive: 16.5 µM [inhibitor, single point]	
Cc1ccc(-c2nc(N=Nc3ccc(O)cc3)n[nH]2)cc1		inactive: 16.8%
CC(C)n1cnc2c(Nc3ccc(F)c(Cl)c3)nc(NCCO)nc21	inconclusive: 16.5 µM [inhibitor, partial curve, poor fit]	

Compound	Potency	activity change, negative = inhibition
O=C(NCCCN1CCOCC1)c1ccc2nc(Cc3cccc(Cl)c3)oc2c1		inactive: -1.14%
C/C(=N/NC(=O)CNC(=O)CCc1ccccc1)c1ccc(Cl)cc1		inactive: 74.3%
CC(C)c1ccc(NC(=O)C(=O)C2C(=O)Nc3ccccc32)cc1 (stereo not drawn)		inactive: 9.08%
COC(=O)c1cc(Br)ccc1NC(=O)CSCc1c(C)noc1C	inconclusive: 5.86 µM [inhibitor, partial curve, poor fit]	
Cc1ccc(S(=O)(=O)Nc2nc(N)n(-c3ccccc3)n2)cc1		inactive: -1.37%
Cc1cc(=O)n2nc(N3CCCC3C(=O)Nc3cccc(F)c3)sc2n1 (stereo not drawn)	inconclusive: 16.5 µM [inhibitor, single point]	
CN(C)CCCN(C(=O)c1cc2cc([N+](=O)[O-])ccc2s1)c1nc2cc3c(cc2s1)OCCO3	inconclusive: 10.4 µM [inhibitor, partial curve]	
Cc1noc(C)c1COc1ccc(C(=O)N2CCC(C)CC2)cc1		inactive: -4.33%
COc1ccccc1OCC(=O)N1CCN(C(=O)c2ccco2)CC1	inconclusive: 18.5 µM [inhibitor, single point]	
Cc1nc(Cl)c(N=Cc2cccc([N+](=O)[O-])c2)c(Cl)n1		inactive: -13.6%
CCCn1nc(C(=O)N(C)CC(=O)Nc2ccc(OCC)c(OCC)c2)c2ccccc2c1=O		inactive: -10.8%
Cc1cccc2c(C(=O)N3CCCCC3)cc(-c3ccccc3)nc12		inactive: 0%
C=CCNC(=S)NC(=O)c1csc([N+](=O)[O-])c1	inconclusive: 0.0033 µM [inhibitor, full curve, poor fit]	
CC(=O)Nc1ccc(NC(=O)CN(c2ccc(F)cc2)S(=O)(=O)c2ccc3c(c2)OCCO3)cc1	active: 8.28 µM	
CN(c1ccccc1)c1nc(N)c([N+](=O)[O-])c(NCc2ccco2)n1	inconclusive: 14.7 µM [inhibitor, single point]	
O=C(C1CCN(S(=O)(=O)c2cccc3cccnc23)CC1)N1CCCCC1		inactive: 5.65%
Cc1noc(C)c1C(=O)N1CCCC(C(=O)c2ccc(Cl)cc2)C1 (stereo not drawn)	inconclusive: 10.4 µM [inhibitor, single point]	
Cc1c(C(=O)O)sc(=S)n1CCOc1ccccc1	inconclusive: 10.4 µM [inhibitor, single point]	
Cc1ccc(-n2c(C)nc3c(cnn3-c3ccc(F)cc3)c2=O)cc1C		inactive: 111%
O=C(Nc1cccc(Cl)c1Cl)C1CC(=O)N(c2ccc(Br)cc2)C1 (stereo not drawn)	active: 10.4 µM	
CCCCCCNCC1OCc2ccccc2CO1		inactive: 13.1%
CCN(CC)CCCCNc1ncc2cc(-c3cc(OC)cc(OC)c3)c(NC(=O)NC(C)(C)C)nc2n1	active: 9.28 µM	
O=C(O)c1ccc(NC(=O)C2CCCCC2)cc1	inconclusive: 18.5 µM [inhibitor, single point]	
